From publication doi:10.1101/2023.08.07.552315 (bioRxiv, 2023) come the findings set out here.

No constants are given. Whether binding was seen depends on the method and setting. Binding can be weak; no strength is given.

For experiment [1], the target named is T1, DSN1 (subunit of the Mis12 complex in the KMN cryo-EM sample) (human) (UniProt Q9H410).
T1 sequence: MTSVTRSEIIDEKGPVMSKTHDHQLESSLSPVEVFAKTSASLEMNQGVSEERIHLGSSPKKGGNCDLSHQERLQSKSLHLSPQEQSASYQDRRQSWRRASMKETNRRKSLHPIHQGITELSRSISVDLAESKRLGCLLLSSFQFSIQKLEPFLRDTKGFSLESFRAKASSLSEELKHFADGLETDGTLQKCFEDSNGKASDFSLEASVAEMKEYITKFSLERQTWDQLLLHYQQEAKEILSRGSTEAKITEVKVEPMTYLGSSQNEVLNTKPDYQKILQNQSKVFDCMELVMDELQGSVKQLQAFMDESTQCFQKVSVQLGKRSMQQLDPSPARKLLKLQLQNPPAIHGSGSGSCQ
Description: cryo-EM structure.

Experiment [2] has as its target T2, PMF1 (subunit of the Mis12 complex in the KMN cryo-EM sample) (human) (UniProt Q6P1K2).
T2 sequence: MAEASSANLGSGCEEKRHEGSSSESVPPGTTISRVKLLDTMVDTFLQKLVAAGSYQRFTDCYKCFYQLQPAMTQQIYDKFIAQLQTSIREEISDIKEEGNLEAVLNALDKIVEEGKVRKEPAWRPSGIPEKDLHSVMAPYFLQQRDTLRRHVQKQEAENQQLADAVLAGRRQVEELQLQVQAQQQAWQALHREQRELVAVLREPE
Briefly: cryo-EM structure.

Experiment [3] has as its target KNL1 residues 2021-2342 (human). Description: SEC. A general note: In gel filtration, larger molecules generally elute earlier.

With “KNL1 residues 2021-2342 (human) (domain or fragment)”, the binding result in experiment [1] and in experiment [2] was “binds” each time.

B1: ZWINT (protein, UniProt O95229 1-277)
chain: MEAAETEAEAAALEVLAEVAGILEPVGLQEEAELPAKILVEFVVDSQKKDKLLCSQLQVADFLQNILAQEDTAKGLDPLASEDTSRQKAIAAKEQWKELKATYREHVEAIKIGLTKALTQMEEAQRKRTQLREAFEQLQAKKQMAMEKRRAVQNQWQLQQEKHLQHLAEVSAEVRERKTGTQQELDRVFQKLGNLKQQAEQERDKLQRYQTFLQLLYTLQGKLLFPEAEAEAENLPDDKPQQPTRPQEQSTGDTMGRDPGVSFKAVGLQPAGDVNLP
Turning to B1, the binding entry in experiment [3] is reported as “binds”.
